Test [1] deals with D1R^T428A/S431A/T439A (Rluc8-tagged) (human) (UniProt P21728). As to the kind of experiment: FRET or BRET. For orientation: In BRET a luciferase serves as donor, and the signal depends on an acceptor being close.
Test [2] has as its target D1R^T428E/S431E/T439E (Rluc8-tagged) (human) (UniProt P21728). As to the kind of experiment: FRET or BRET.
Test [3] addresses D1R^A238-E252 peptide, native sequence (human) (UniProt P21728). As to the kind of experiment: peptide or protein array.
In test [4] the target is D1R^E252-R266 peptide, native sequence (human) (UniProt P21728). The test can be described thus: peptide or protein array.

Protein sequences, listed by entry. Tags and fused reporters are not part of them. Lines headed by an entry give the natural chain unless they say otherwise; changes in a name come on top.
UniProt P21728: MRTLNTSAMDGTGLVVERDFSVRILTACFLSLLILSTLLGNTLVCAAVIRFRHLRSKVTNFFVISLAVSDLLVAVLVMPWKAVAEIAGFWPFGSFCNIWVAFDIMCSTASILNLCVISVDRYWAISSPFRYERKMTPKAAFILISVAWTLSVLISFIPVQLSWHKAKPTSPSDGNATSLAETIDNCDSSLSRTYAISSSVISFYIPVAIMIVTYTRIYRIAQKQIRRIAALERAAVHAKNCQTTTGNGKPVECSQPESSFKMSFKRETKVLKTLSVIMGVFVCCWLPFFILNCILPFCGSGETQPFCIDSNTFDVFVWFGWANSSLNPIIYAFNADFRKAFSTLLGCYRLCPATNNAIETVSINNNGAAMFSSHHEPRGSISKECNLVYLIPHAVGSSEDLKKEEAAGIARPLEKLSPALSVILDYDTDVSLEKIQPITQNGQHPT
UniProt P32120: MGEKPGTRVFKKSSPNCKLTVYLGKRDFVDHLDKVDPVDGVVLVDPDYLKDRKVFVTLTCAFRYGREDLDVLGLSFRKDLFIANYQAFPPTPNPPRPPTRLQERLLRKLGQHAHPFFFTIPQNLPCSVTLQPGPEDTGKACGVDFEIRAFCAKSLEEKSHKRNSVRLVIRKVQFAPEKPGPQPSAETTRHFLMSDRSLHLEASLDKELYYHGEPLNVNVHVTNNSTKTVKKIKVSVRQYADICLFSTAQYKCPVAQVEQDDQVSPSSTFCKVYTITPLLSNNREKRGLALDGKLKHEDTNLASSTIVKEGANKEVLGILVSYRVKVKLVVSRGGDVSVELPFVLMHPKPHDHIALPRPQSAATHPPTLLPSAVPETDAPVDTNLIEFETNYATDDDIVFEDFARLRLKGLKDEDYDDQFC

Among the data in article doi:10.1101/2020.03.03.971846 are binding values, retold here.

No constants are given. Whether binding was seen depends on the method and setting. For some of these results: Binding seen in cells or lysates may run through a third protein. Some binding calls cover weakened binding; strength is not graded here.

Consider “Venus-arrestin-3 (from UniProt P32120 1-420)”, for which the binding entry in test [1] and in test [2] was “binds” each time.

Regarding arrestin-3 (from UniProt P32120 1-420), the binding entry in test [3] and in test [4] was “binds weakly” throughout.
